This is one part of the list.

By UniProt entry, the sequences of proteins in these tests, tags left out.
UniProt Q0JBA9, entry or part of it: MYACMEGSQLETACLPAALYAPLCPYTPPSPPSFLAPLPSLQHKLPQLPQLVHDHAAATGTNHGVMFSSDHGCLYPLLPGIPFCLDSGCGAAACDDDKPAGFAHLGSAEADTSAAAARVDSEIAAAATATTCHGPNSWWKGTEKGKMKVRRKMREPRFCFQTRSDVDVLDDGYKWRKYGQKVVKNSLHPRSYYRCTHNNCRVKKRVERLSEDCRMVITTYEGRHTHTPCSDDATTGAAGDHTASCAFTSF

The assay deals with OsWRKY34 (Oryza sativa, UniProt Q0JBA9 1-250). The experiment in a line: protein-binding microarray (RPBM); PBS, 2% BSA, 51.3 ng/ul salmon testes DNA, 50 uM zinc acetate, 200 nM TF, 25 C, 1 h; high values mean tight binding. The conditions noted are these: protein: recombinant; tags: N-terminal polyhistidine and DsRed monomer fusion (pET32a); label: CyDye5-dUTP incorporated in the synthesized complementary strand; 3' TTTTT single-stranded linker to array surface; dsDNA, one strand shown. The method in brief: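 The binding signal is fluorescence intensity per feature, in arbitrary units, read on an Axon 4000B scanner. Polyhistidine- and DsRed-tagged transcription factors (N-terminal fusions) from E. coli BL21-CodonPlus were purified on Ni–NTA and applied at 200 nM for 1 h at 25 °C to a double-stranded, BSA-blocked custom Agilent array in buffer with 50 µM zinc acetate.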
Regarding “GACAACGGTCAAATATGTGCTAAAAAGTCAACGGTATCAACGGAGTCACCTAGTGCAG”, the binding signal is 11600 fluorescence intensity (a.u.).
The result for “CTGCACAATCACATGATCTCATTTTAATTAGTTCAATACCCGGAGTCACCTAGTGCAG” reads 9090 fluorescence intensity (a.u.); that for “GATGGGGCGAAATTACTAAAGTACCCTCGATTTTTTGACGCGGAGTCACCTAGTGCAG”, 8920 fluorescence intensity (a.u.); that for “ACCCAGCTTTTCCATATTCTCATAAGCTGGATACCGACCACGGAGTCACCTAGTGCAG”, 8060 fluorescence intensity (a.u.).
With “CACTGACTCACACCCCGTCACTCCCCTCTTCTCCTCACCTCGGAGTCACCTAGTGCAG”, the binding signal is 8170 fluorescence intensity (a.u.).
The figure for “GCTAGTCTACTTCACCTTCCATCATCCGCTCAACGGTGAACGGAGTCACCTAGTGCAG” is 8220 fluorescence intensity (a.u.); for “ATTGTTATCCTCAATTTCCTCTTGTTCATGTGCTCTTTCTCGGAGTCACCTAGTGCAG” it is 11300 fluorescence intensity (a.u.).
The result for “CCCCAATGAATCATAGGCTCAACCTGCTCCTGCTGCAACACGGAGTCACCTAGTGCAG” reads 8040 fluorescence intensity (a.u.); that for “ACATTCCTATCCCATTTTTTTCATTATTATTCTCTATGTTCGGAGTCACCTAGTGCAG”, 10600 fluorescence intensity (a.u.); that for “ATTTGTCTCTTTCGCGTCGTCTCTAACCTAACGTCCCAGACGGAGTCACCTAGTGCAG”, 13100 fluorescence intensity (a.u.).
Turning to “GGTGGTCTTCTTTTTTTGCGGTGGAGTTGGATTTGGGTTGCGGAGTCACCTAGTGCAG”, the binding signal is 13000 fluorescence intensity (a.u.).
The figure for “CCACCCCAACTATTATTGCTATCTTACCGACTTACCGTGTCGGAGTCACCTAGTGCAG” is 8960 fluorescence intensity (a.u.).
The result for “TCAGTCGATTTCTTCTTCCCGAAGCTTTCCAGCGCCTCATCGGAGTCACCTAGTGCAG” reads 8290 fluorescence intensity (a.u.).
The result for “TTTGTTGTTCAAACTTTTGTTATGGTTAGTTAGGTCTATACGGAGTCACCTAGTGCAG” reads 8490 fluorescence intensity (a.u.).
Consider “TCTTATCTCCTCGCCTCCACCTCCTCACCTGTAGTTTTCCCGGAGTCACCTAGTGCAG”, for which the binding signal was 10600 fluorescence intensity (a.u.).
The figure for “AACACCAACACACCCTCGGGCCACGACTTCGACTACAACGCGGAGTCACCTAGTGCAG” is 8530 fluorescence intensity (a.u.); for “GCGCGCGCCGCCGTCGTCATCCCCGTCGCTTCGCGCCTTCCGGAGTCACCTAGTGCAG” it is 9150 fluorescence intensity (a.u.); for “ATCTCCACCCCGACTCAGATCGCCTCCACTTCCAGCAGAGCGGAGTCACCTAGTGCAG” it is 8600 fluorescence intensity (a.u.).
For “GGAACGTGGTATTAGTATTACTACCCTGCTCTGAGTTGATCGGAGTCACCTAGTGCAG”, the binding signal was 8750 fluorescence intensity (a.u.).
With “AATCCTTCAGTCTTCTGCACGTTTACCCTAAGTTTTATGGCGGAGTCACCTAGTGCAG”, the binding signal is 8570 fluorescence intensity (a.u.).
“GCCCACGGACCAGCCACACATTTCCACTGACACGCGCTAACGGAGTCACCTAGTGCAG”: the binding signal was 10300 fluorescence intensity (a.u.).
Consider “GTCCATGATGCCCTAGTAAGCTTTCACGCCGGCGAGCAATCGGAGTCACCTAGTGCAG”, for which the binding signal is 8280 fluorescence intensity (a.u.).
With “CATTGTTCCTCACAGGATCAGGGGTGGAGAGTGAAGAGAGCGGAGTCACCTAGTGCAG”, the binding signal is 8070 fluorescence intensity (a.u.).
The result for “GTTTATGCTGTTGCTGATGAGGGTGGTGTGGGAATGTGCGCGGAGTCACCTAGTGCAG” reads 8240 fluorescence intensity (a.u.); that for “GATGTCTCTCTTTTTTTTTTTGGTTTGGGTTGTCACTTTTCGGAGTCACCTAGTGCAG”, 9400 fluorescence intensity (a.u.).
As to “GAATTACTCTCGTTGCTGGACTAATTTCTTGTTGGATACTCGGAGTCACCTAGTGCAG”, the binding signal was 9400 fluorescence intensity (a.u.).
With “GAGGCGCGCGCCACCACCGCGACAGTTTCCCGCGCTTTTTCGGAGTCACCTAGTGCAG”, the binding signal was 9220 fluorescence intensity (a.u.).
The figure for “TTGCATCCGGGACTATTGTGGAATTCGACCGACCGACGAACGGAGTCACCTAGTGCAG” is 8820 fluorescence intensity (a.u.); for “CGTGTATATATTTCTCCACTTCCTAGAGTTGGCAACACTACGGAGTCACCTAGTGCAG” it is 9460 fluorescence intensity (a.u.); for “GGGGTTTTTTAATCAAAGTTTATTTTTCAGCCCTTGTTTTCGGAGTCACCTAGTGCAG” it is 8310 fluorescence intensity (a.u.).
As to “ATTCACCTTGCAATGGGTTCCTTTGGGTACTTTGCCGCTCCGGAGTCACCTAGTGCAG”, the binding signal was 8900 fluorescence intensity (a.u.).
“GGACCATCTCCGCCGCCGCCGCTGCCATCACTTCGTCCTCCGGAGTCACCTAGTGCAG”: the binding signal is 17600 fluorescence intensity (a.u.).
The result for “GTACAACATTCATCATCCATCACCCATATCGTTCAAGATGCGGAGTCACCTAGTGCAG” reads 8150 fluorescence intensity (a.u.); that for “CATGCATGCTTCTATTCATTGCGATTTGCGAGCTCAATTGCGGAGTCACCTAGTGCAG”, 8980 fluorescence intensity (a.u.); that for “GTGAATATTTAGGCTGAGTTTTTATCTCTACTTTCCAACTCGGAGTCACCTAGTGCAG”, 9630 fluorescence intensity (a.u.).
The figure for “TCTCCATCCGTCCGTCCATCCGTGCGGAACCAATCGTACGCGGAGTCACCTAGTGCAG” is 8780 fluorescence intensity (a.u.); for “GTGCCATCTTTCTATTATTTAGGTCGTTGATTGCTTAAGTCGGAGTCACCTAGTGCAG” it is 8500 fluorescence intensity (a.u.).
With “GTTCTTACTGTATCGCCTGAAATTCCTGGTGTTAAGCTCTCGGAGTCACCTAGTGCAG”, the binding signal was 8350 fluorescence intensity (a.u.).
The result for “GGTGGTCGTCGCCATGGCGTGCTCTGCCTTCGAGCTTTTTCGGAGTCACCTAGTGCAG” reads 8450 fluorescence intensity (a.u.); that for “CAAATCCGCTCCGTTAGCTTCTCGCCGGCTATTCAACCTTCGGAGTCACCTAGTGCAG”, 11200 fluorescence intensity (a.u.).
For “CCGAACACCCTCGCCGCGCACCCCGCCTCGAAACCTCCGCCGGAGTCACCTAGTGCAG”, the binding signal is 8810 fluorescence intensity (a.u.).
The result for “CATCGTTGACCAAGAATAAGAACAGCGAATTTGCATAATGCGGAGTCACCTAGTGCAG” reads 14700 fluorescence intensity (a.u.).

(Values after paper PMC7819943, “Rice protein-binding microarrays: a tool to detect cis-acting elements near promoter regions in rice”.)
